Reference: article PMC3795673

Amino acid sequences for entries named in this document (tags omitted). A change or cut given only in a name is not applied to a line headed by its entry. Chains listed by the source or under a name are the forms on record and can include a tag or linker.
MDM2-C (endogenous human MDM2 splice isoform C) (human (endogenous in MANCA)) (Q00987, form named): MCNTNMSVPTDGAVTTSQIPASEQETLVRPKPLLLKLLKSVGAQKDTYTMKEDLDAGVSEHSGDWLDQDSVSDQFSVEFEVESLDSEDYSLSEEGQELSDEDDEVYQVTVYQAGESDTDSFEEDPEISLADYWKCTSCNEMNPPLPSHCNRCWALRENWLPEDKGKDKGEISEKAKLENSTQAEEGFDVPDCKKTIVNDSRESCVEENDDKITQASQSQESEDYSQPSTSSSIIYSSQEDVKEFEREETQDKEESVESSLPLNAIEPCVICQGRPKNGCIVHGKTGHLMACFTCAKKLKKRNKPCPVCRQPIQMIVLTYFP
UniProt P08238: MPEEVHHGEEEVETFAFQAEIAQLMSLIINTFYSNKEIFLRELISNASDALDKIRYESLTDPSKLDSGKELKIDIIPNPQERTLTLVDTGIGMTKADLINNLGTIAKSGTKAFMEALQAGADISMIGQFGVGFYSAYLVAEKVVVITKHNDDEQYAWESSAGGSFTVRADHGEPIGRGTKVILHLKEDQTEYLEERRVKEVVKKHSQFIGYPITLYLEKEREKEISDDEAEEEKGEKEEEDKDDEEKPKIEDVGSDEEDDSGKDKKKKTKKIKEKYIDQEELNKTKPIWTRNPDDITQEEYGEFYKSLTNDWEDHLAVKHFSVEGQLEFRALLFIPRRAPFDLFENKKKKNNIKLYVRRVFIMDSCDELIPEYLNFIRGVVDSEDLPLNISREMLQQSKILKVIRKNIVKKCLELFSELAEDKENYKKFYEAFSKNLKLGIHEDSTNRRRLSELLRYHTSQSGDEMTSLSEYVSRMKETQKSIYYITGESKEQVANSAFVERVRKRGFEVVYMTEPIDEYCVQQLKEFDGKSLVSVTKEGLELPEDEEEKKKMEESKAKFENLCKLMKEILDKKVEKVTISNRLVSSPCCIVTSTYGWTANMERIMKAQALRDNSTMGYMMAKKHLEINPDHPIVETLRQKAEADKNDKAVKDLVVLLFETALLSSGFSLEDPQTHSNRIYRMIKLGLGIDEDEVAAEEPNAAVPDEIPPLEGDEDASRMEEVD
UniProt P17844: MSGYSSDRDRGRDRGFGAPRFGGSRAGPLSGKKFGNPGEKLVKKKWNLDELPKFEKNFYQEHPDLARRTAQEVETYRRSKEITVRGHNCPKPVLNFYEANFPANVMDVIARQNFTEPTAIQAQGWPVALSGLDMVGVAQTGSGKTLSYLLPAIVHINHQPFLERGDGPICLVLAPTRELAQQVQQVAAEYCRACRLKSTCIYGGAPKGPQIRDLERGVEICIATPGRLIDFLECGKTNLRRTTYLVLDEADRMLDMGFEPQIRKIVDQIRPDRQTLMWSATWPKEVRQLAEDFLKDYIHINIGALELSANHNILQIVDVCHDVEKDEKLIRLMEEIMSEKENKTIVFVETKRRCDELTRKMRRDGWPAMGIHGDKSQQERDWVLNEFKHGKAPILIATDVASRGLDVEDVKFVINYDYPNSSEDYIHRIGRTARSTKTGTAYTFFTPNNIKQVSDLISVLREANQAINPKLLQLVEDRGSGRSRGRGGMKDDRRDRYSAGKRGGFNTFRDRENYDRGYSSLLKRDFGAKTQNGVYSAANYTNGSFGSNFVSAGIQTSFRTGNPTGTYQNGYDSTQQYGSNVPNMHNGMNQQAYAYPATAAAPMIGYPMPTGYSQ
UniProt P11142: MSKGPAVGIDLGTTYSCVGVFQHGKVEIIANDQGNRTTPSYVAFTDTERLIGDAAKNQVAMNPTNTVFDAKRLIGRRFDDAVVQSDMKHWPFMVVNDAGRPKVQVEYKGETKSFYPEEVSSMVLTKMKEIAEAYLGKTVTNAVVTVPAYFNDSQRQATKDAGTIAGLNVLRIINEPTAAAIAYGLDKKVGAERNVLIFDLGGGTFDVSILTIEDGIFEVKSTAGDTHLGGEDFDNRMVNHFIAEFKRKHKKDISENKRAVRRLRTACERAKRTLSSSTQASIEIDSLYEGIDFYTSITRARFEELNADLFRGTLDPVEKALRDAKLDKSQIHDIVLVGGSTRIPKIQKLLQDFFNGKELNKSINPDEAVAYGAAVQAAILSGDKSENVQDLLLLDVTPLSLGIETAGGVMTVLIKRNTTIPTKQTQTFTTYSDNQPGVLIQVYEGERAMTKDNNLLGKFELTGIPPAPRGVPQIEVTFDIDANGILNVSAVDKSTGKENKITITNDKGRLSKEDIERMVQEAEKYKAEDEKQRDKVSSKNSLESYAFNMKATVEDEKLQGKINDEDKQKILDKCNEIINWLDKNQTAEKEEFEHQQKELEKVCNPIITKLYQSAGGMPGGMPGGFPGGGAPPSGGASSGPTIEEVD

Molecular target: MDM2-C (endogenous human MDM2 splice isoform C) (human (endogenous in MANCA)) (UniProt Q00987)
Experiment: affinity purification with mass spectrometry; MDM2 C410 serum immunoprecipitation from MANCA whole cell extracts (pre-immune serum as control), SDS-PAGE, Coomassie-stained bands excised, trypsin digestion, LC-MS/MS, Scaffold 3 analysis (at least five peptides with 95% probability)

| binding | Substance |
| --- | --- |
| binds | Heat Shock protein HSP90β (HS90B) (from UniProt P08238 1-724) |
| binds | probable ATP-dependent RNA helicase (DDX5) (from UniProt P17844 1-614) |
| binds | Heat Shock Cognate 71 Protein (HSP7C) (from UniProt P11142 1-646) |

Results are given in words; binding and its absence hold for the method and conditions named. Binding seen in cells or lysates may run through a third protein. A yes stands for co-enrichment or nearness to the bait. Other partners may have been found.
